Measurements as given in doi:10.1101/2020.05.29.123034.
Where two headings read alike, the source gives them in different places. No constants are given. Whether binding was seen depends on the method and setting. Binding seen in cells or lysates may run through a third protein. Here binding means that the protein was enriched with, or labelled near, the bait; the list need not be complete. For some of these results: Sequences can lack the tags named with a protein. Blank lines part the entries; values can stand above or below the molecule they belong to.

The chains behind the UniProt entries cited, without tags or fusion partners. Residues count along the entry.
UniProt P31016, residues 403-724: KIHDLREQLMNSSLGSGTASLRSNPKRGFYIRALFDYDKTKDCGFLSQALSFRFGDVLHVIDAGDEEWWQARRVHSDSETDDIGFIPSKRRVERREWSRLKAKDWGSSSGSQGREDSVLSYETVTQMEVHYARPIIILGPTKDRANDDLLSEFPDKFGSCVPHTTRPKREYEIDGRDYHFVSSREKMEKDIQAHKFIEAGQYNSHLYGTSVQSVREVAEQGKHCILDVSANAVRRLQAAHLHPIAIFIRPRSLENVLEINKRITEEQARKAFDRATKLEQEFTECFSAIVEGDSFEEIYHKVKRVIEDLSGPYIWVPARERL
UniProt Q5XI81: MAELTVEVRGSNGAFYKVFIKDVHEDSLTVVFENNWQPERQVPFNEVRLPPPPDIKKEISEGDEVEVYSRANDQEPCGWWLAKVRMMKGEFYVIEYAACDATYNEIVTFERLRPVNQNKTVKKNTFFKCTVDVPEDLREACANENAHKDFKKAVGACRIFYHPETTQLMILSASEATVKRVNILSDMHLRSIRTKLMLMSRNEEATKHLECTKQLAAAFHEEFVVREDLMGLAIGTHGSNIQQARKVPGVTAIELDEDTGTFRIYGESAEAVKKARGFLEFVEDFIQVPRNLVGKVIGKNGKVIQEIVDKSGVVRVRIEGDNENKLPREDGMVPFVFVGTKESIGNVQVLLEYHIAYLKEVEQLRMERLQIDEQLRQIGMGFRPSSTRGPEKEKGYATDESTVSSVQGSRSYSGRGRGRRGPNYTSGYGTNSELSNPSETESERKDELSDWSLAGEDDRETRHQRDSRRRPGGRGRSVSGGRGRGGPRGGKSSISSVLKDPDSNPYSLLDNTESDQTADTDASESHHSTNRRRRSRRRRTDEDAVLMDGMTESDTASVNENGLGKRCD
UniProt P34926: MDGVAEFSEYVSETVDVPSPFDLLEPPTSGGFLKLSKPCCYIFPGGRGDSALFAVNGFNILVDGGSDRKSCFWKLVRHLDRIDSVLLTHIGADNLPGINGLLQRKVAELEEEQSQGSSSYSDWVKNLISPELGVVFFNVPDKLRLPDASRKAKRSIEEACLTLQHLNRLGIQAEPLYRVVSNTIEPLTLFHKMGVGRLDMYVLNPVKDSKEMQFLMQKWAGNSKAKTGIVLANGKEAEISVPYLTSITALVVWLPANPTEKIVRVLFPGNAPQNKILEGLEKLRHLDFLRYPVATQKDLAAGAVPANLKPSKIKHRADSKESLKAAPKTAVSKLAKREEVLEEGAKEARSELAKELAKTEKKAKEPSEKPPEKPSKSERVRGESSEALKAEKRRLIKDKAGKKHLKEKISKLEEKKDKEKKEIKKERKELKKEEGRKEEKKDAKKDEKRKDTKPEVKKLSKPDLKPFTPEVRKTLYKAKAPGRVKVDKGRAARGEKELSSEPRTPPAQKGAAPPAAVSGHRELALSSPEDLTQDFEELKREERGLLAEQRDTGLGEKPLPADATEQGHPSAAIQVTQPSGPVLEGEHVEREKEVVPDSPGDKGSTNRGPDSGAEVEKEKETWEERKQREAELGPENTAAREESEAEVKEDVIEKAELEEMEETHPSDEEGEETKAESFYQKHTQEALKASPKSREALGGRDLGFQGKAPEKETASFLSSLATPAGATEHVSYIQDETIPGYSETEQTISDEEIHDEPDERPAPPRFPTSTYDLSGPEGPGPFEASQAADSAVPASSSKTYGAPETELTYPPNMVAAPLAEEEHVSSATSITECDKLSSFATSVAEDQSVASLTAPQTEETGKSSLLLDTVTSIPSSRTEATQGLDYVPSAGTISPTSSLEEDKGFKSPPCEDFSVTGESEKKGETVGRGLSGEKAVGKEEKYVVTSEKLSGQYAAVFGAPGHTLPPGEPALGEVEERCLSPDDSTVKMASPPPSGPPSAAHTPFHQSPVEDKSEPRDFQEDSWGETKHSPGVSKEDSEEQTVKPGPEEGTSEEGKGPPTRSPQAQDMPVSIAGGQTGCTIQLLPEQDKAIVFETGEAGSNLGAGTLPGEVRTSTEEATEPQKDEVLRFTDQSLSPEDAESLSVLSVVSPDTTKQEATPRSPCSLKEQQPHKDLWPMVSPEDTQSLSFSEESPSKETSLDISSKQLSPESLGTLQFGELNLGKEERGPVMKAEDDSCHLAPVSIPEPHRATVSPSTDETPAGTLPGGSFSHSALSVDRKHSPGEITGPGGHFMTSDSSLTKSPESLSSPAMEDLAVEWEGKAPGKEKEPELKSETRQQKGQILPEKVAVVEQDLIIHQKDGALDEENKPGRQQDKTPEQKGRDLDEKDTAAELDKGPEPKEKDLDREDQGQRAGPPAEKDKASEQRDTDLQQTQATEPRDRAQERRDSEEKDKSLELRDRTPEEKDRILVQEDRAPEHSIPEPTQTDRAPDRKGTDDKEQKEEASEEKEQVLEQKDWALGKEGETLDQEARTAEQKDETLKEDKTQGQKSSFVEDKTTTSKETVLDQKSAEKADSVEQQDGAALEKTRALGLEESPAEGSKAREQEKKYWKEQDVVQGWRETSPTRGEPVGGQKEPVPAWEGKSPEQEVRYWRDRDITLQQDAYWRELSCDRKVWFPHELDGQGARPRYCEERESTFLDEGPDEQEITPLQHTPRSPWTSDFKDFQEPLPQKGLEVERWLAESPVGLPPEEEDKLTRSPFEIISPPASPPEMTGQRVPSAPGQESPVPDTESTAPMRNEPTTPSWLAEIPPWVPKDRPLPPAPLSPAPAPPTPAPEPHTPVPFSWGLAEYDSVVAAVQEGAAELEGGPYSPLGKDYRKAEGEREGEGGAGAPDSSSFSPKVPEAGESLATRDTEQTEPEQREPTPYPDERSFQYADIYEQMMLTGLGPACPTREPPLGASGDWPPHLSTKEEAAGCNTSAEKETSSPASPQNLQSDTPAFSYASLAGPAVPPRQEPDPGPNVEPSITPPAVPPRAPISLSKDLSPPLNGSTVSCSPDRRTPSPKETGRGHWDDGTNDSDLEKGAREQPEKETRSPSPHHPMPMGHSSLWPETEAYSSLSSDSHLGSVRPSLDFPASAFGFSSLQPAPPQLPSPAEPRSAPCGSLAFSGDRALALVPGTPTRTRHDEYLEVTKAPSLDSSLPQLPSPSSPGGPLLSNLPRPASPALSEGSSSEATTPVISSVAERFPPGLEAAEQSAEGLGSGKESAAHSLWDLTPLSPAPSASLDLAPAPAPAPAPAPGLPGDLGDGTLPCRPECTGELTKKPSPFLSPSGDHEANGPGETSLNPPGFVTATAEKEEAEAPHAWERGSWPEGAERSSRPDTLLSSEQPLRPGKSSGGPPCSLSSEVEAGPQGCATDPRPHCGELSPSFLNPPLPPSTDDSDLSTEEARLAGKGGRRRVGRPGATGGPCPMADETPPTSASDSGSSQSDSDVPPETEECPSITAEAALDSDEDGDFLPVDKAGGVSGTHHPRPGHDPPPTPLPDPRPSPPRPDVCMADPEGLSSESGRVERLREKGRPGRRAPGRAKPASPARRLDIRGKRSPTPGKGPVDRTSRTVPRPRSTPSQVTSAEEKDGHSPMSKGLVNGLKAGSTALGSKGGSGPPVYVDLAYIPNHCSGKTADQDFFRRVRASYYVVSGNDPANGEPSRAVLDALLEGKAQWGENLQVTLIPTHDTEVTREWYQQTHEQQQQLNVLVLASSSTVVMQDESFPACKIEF
UniProt Q5I6B8: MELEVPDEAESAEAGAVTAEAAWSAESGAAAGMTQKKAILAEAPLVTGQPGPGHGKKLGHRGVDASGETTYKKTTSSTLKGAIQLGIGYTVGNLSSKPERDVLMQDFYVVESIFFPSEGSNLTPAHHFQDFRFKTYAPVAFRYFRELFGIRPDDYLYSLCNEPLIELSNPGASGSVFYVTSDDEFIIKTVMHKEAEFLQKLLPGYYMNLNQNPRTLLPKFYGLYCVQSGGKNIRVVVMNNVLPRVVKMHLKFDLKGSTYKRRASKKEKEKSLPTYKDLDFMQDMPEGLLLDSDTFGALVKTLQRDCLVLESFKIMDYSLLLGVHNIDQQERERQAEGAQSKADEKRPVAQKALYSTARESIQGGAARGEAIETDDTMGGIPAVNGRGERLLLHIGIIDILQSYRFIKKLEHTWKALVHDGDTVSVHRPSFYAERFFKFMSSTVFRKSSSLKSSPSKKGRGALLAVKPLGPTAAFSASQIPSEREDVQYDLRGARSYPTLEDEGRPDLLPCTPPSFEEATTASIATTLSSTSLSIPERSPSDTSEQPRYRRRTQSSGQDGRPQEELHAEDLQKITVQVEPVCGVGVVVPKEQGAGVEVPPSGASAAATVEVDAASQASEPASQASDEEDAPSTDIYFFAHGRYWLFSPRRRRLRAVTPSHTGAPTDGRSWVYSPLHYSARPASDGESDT
UniProt P59215: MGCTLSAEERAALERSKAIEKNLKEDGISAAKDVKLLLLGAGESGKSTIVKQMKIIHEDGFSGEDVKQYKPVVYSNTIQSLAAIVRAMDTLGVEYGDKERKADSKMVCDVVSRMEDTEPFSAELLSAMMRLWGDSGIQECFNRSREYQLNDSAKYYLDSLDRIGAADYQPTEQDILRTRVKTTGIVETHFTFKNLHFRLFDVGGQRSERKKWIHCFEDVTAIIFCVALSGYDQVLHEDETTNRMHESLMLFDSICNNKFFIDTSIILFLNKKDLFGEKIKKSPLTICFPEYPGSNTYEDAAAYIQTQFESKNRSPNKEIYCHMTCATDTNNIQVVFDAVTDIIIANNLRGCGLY

Tests used:
Assay in all cases: affinity purification with mass spectrometry
GST-PSD-95-SH3GK = GST-PSD-95-SH3GK (UniProt P31016)
GST-MPP2-SH3GK (mouse) [1] = target: T1, GST-MPP2-SH3GK (mouse) (UniProt Q9WV34)
T1 sequence: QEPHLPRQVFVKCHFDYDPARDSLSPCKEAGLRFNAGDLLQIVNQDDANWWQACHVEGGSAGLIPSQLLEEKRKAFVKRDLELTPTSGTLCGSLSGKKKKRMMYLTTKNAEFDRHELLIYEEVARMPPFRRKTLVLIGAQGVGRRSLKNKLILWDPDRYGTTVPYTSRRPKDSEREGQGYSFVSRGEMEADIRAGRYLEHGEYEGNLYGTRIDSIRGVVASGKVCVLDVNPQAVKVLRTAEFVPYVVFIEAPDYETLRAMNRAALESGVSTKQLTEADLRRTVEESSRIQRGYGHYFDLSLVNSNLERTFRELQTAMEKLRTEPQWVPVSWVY

GST-MPP2-SH3GK (mouse) [2] = target: T1, GST-MPP2-SH3GK (mouse); remark: listed apart in the source

binding (GST-PSD-95-SH3GK): binds
Molecule: endogenous Fxr1 from rat brain crude synaptosomes (from UniProt Q5XI81 1-568)

binding (GST-MPP2-SH3GK (mouse) [2]): binds
B2: endogenous Farp1 from rat brain crude synaptosomes (protein, UniProt F1LYQ8 1-1049)
chain: MGEIEQKPTPASRLGAPENSGISTLERGQKPPPTPSGKLMTVKIQMLDDTQEAFEVPQRAPGKVLFDAVCNHLNLVEGDYFGLEFPDHRKIVVWLDLLKPIVKQIRRPKHVLVKFVVKFFPPDHTQLQEELTRYLFALQVKQDLAQGRLTCNDTSAALLISHIVQSEIGDFDEALDREHLAKNKYVPQQDALEDKIVEFHHSHIGQTPAESDFQLLEVARRLEMYGIRLHPAKDREGTKINLAVANTGILVFQGFTKINAFNWAKVRKLSFKRKRFLIKLRPDVNSSYQDTLEFLMAGRDFCKSFWKICVEHHAFFRLFEEPKPKPKPVLFSRGSSFRFSGRTQKQVLDYVKEGGHKKVQFERKHSKIHSTRSLVSQPTAPNSEVPKQSPQSASLTFGEGTESPSAQSCQQAKETKVCTLEPGPRQSPALSKSPSGSKAADGTAAAAPPEEEDEEEGGKDGIRPSNPQPPQPSTGSLTGSPHLSELSINSQGGAAPANVTLSPNLSPDNKQASPLISPLLNDQACPRTDDEEEGRRKRFPTDKAYYIAKEVSTTERTYLKDLEVIASWFQSTVSKEDSMPEALKSLIFPNFEPLHKFHTNFLKEIEQRLALWEGRSNAHIRGDYQRIGDVMLKNIQGMKHLAAHLWKHSEALEALETSIKGSRRLEHFCRDFELQKVCYLPLNTFLLRPLHRLMHYKQVLERLCKHHPPNHADFRDCRAALAEITEMVAQLHGTMIKMENFQKLHELKKDLIGIDNLVIPGREFIRLGSLSKLSGKGLQQRMFFLFNDVLLYTSRGLTASNQFKVHGQLPLYGMTIEESEEEWGVPHCLTLRGQRQSIIVAASSRSEMEKWLEDIQMAIDLAEKSNGPTPELLASSPPDNKSPDEATAADQESEDDLSASRTSLERQAPHRGNTMVHVCWHRSTSVSMVDFSIAVENQLSGNLLRKFKNSNGWQKLWVVFTNFCLFFYKSHQDSHPLASLPLLGYSLTIPSESENIHKDYVFKLHFKSHVYYFRAESEYTFERWMEVIRSATSSASRAHSLSHKESHLY

The remaining lines, values behind:

Molecule: endogenous Map1a from rat brain crude synaptosomes (from UniProt P34926 1-2774)
binding (GST-PSD-95-SH3GK): binds

Molecule: endogenous Pip5k1c from rat brain crude synaptosomes (from UniProt Q5I6B8 1-688)
binding (GST-MPP2-SH3GK (mouse) [1]): binds

Molecule: endogenous Gnao1 from rat brain crude synaptosomes (from UniProt P59215 1-354)
binding (GST-MPP2-SH3GK (mouse) [1]): binds

Molecule: endogenous calcium-dependent, calmodulin-stimulated protein phosphatase (Calcineurin) subunit Ppp3ca from rat brain crude synaptosomes (from UniProt P63329 1-521)
binding (GST-MPP2-SH3GK (mouse) [1]): binds

B1: endogenous Arhgef2 from rat brain crude synaptosomes (protein, UniProt Q5FVC2 1-985)
chain: MSRIESLTRARIDRSKEQATKTREKEKMKEAKDARYTNGHLFTTISVSGMTMCYACNKSITAKEALICPTCNVTIHNRCKDTLANCTKVKQKQQKAALLRNNTALQSVSLRSKTTTRERPTSAIYPSDSFRQSLLGSRRGLSSLSLAKSVSTTNIAGHFNDESPLGLRQILSQSTDSLNMRNRTLSVESLIDEGVEVFYNELMSDFEMDEKDFEADSWSLAVDSSFLQQHKKEVMKKQDVIYELIQTELHHVRTLKIMTRLFRTGMLEELQMEPEVVQGLFPCVDELSDIHTRFLSQLLERRRQALCPGSTRNFVIHRLGDLLISQFSGSNAEQMRKTYSEFCSRHTKALKLYKELYARDKRFQQFIRKMTRSAVLKRHGVQECILLVTQRITKYPVLINRILQNSHGIEEEYQDLAAALGLVKELLSNVDQDVHELEKEARLQEIYNRMDPRAQTPVPGKGPFGRDELLRRKLIHDGCLLWKTATGRFKDVLLLLMTDVLVFLQEKDQKYIFTSLDKPSVVSLQNLIVRDIANQAKGMFLISSGPPEMYEVHAASRDDRTTWIRVIQQSVRLCPSREDFPLIETEDKAYLRRIKTKLQQKNQALVELLQMNVELFAEMVHFQALKAGFIGMPPPTLPRGLFRLESFESLRGERLLKDALREVEGLKDLLLGPCVDLPLTAREPALPVEADSGSCPGVTANGEARTFNGSIELCRADSDSSQKDRNGNQLRSPQEEALQPLVNLYGLLQGLQAVVVQQERLMEALFPEGPERWEKLSRANSRDGEAGRAAVASVTPEKQATELALLQRQHSLLQEELRRCQRLGEERATEAGSLEARLRESEQARALLEREAEEIRRQLAALGQNEPLPAEAPWARRPLDPRRRSLPAGDALYLSFNPPQPSRGHDRLDLPVTVRSLHRPFDDREAQELGSPEDRLQDSSDPDTCSEEEVSSRLSPPHSPRDFTRMQDIPEETESRDGEPTASES
binding (GST-MPP2-SH3GK (mouse) [2]): binds
